Measured values from paper PMC12728634.

Molecular target: T1, sclerostin (UniProt Q9BQB4)
T1 sequence (looked up, limits assumed): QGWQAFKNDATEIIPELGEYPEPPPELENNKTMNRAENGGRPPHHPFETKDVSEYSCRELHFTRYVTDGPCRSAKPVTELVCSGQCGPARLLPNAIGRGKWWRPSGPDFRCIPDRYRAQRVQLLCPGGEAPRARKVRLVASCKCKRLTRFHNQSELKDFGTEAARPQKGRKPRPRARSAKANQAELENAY
Test: BLI
Conditions: tri-GalNAc via amino-C6 linker (terminus not stated in material); 2'-OMe (printed OMe) at nt 1-4 and 37-40; 3' idT (not in string); BLI in 1x PBS + 0.02% Tween20, pH 7.4, 500 rpm; 1:1 fit; regeneration 5 M NaCl; temperature not given; commercial protein; single-stranded DNA

Sequence: ATGCAAGCACATTGTGATCGCTTCAAATGTCTTCCGUCCG [GalNAc-Scramble]
- binding result: no binding

No signal at the amounts used counts as a negative. At least one verdict rests on a figure or table, not on a statement of the authors. Where a protein sequence is shown, tags need not be part of it.
